From patent publication US20160287571A1, “PHARMACEUTICAL COMPOSITIONS COMPRISING ANTIBACTERIAL AGENTS” (priority 2013, published 2016)
For at least one compound, name, drawing or mass did not settle the structure.

Tests used:
[1] = tested on: A. baumannii NCTC 13302 (OXA 51, OXA 25); assay: Time kill study; assay type: cell-based, Acinetobacter baumannii; details: summary of Table 3
Protocol: (§1) The synergistic killing effect of the combinations according to invention was studied using time kill studies. In a typical time kill study, freshly grown cultures were diluted to the required cell density (initial starting inoculum) in Cation adjusted Muller Hinton broth medium (BD, USA). The antibacterial agents (either alone or in combination) at the required concentrations were added into the culture-containing medium. The samples were incubated under shaking condition (120 rpm) at 37° C. Enumeration of viable bacterial count was done every 2 hour by diluting in normal saline and plating on to the Tryptic Soya Agar plates (BD, USA). The plates were incubated for 24 hours to arrive at the viable bacterial count. The results are expressed in terms of Log CFU per […]. In general, the decrease of 1 Log CFU/ml, corresponds to 90% killing of bacteria. Similarly, 2 Log CFU/ml reductions indicates 99% killing of bacteria and 3 Log CFU/ml reductions is equal to 99.9% killing of bacteria.

[2] = tested on: A. baumannii NCTC 13304 (OXA 51, OXA 27); assay: Time kill study; assay type: cell-based, Acinetobacter baumannii; details: summary of Table 4
Protocol: as §1

## C[C@@H](O)[C@H]1C(=O)N2C(C(=O)O)=C(SCCN=CN)C[C@H]12 [Imipenem, imipenem]
[1]
  Effect on bacterial counts throughout the duration of the study (in words): did not reduce the bacterial counts
[2]
  Effect on bacterial counts throughout the duration of the study (in words): did not reduce the bacterial counts
